Reference: the supplement of paper PMC10849652
The other results are listed elsewhere or left out.

Protein sequences, listed by entry. Tags and fused reporters are not part of them. Lines headed by an entry give the natural chain unless they say otherwise; changes in a name come on top.
UniProt P02730: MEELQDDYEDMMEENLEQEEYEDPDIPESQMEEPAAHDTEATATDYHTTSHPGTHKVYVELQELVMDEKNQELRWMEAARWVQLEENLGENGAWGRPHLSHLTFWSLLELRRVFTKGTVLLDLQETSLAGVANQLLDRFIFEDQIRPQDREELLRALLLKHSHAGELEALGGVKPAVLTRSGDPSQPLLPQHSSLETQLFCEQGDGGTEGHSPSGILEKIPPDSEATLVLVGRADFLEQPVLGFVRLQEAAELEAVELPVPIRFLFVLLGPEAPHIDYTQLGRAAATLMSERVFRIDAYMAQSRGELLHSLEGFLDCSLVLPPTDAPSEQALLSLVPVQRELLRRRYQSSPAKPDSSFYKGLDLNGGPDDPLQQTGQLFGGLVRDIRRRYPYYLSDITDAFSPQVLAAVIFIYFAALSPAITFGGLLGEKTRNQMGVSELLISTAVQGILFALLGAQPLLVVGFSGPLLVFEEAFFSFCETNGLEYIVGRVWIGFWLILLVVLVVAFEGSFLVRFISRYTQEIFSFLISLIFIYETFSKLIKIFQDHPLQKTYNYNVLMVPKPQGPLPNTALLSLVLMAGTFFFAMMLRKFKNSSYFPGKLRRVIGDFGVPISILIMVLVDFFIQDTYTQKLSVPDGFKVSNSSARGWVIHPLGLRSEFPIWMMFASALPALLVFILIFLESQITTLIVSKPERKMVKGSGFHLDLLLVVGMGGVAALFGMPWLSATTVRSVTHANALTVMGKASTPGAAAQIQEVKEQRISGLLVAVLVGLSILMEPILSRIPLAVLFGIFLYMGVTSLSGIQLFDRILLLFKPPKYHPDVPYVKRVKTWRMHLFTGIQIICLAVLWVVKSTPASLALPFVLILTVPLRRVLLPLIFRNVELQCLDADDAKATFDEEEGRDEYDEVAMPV
UniProt P48029: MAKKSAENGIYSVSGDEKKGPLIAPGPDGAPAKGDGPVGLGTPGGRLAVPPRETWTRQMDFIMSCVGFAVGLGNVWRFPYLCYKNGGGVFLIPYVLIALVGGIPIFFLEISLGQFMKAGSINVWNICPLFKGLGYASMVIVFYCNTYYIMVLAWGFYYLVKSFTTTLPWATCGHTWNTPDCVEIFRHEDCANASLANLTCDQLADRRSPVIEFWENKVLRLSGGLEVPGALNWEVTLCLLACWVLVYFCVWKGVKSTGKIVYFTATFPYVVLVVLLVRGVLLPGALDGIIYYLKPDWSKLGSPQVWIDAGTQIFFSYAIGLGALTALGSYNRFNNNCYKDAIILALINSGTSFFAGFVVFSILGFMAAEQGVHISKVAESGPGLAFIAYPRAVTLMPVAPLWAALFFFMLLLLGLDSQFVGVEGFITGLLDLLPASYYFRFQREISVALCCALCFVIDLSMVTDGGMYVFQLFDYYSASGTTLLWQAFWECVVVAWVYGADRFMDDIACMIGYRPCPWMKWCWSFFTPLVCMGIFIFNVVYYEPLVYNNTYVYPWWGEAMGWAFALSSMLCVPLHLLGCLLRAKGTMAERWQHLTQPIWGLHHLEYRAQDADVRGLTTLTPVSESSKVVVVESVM
UniProt Q96DW6: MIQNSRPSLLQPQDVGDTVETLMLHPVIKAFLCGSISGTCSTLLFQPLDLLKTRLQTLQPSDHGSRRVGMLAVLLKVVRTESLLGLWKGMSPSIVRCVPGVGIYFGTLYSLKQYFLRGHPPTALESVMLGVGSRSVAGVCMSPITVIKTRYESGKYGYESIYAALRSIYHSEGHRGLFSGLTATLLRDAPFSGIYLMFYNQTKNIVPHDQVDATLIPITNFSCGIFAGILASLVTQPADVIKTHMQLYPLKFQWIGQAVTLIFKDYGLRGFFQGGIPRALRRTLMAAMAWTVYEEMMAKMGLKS
UniProt O43826: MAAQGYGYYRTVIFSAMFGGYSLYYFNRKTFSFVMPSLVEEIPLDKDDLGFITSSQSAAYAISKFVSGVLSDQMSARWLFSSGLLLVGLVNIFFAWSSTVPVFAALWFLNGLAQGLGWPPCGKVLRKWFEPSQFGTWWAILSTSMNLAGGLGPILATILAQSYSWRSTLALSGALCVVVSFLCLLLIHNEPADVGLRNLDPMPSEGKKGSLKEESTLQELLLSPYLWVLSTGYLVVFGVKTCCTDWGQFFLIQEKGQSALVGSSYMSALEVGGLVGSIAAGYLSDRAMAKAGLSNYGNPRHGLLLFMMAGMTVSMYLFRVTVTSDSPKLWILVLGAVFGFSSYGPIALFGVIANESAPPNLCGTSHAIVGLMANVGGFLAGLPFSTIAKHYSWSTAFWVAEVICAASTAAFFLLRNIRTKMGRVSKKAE
UniProt Q00325: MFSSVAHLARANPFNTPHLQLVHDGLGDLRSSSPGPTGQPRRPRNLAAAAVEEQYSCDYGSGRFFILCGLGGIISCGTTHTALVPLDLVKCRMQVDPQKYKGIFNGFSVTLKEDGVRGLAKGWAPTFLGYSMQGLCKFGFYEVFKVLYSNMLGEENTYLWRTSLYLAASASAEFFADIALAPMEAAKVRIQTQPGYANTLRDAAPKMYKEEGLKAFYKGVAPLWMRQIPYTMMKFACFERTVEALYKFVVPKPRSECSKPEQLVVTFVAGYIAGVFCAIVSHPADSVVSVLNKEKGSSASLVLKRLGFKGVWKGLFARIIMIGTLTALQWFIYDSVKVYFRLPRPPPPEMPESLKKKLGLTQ
UniProt Q9BQT8: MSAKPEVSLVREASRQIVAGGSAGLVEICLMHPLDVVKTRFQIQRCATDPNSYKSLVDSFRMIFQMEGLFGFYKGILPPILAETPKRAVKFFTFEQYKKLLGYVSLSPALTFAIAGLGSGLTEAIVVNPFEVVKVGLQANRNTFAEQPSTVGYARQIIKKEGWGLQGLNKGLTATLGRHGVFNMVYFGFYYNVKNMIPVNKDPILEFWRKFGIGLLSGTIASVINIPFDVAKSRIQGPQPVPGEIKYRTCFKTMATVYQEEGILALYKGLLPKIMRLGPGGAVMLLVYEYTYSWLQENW
UniProt Q6XR72: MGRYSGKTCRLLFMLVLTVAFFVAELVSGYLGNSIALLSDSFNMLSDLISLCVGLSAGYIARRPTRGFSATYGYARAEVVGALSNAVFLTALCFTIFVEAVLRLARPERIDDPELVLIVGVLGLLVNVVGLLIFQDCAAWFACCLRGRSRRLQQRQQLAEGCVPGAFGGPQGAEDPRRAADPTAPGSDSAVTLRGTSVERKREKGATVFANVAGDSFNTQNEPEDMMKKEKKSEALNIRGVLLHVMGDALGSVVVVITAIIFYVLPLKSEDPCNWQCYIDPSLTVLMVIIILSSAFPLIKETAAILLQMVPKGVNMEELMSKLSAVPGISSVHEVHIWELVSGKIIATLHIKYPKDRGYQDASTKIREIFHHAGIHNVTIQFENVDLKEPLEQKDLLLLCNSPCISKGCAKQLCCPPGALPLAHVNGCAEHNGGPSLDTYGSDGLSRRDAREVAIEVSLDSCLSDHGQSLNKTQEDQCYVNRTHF
UniProt Q9NYZ2: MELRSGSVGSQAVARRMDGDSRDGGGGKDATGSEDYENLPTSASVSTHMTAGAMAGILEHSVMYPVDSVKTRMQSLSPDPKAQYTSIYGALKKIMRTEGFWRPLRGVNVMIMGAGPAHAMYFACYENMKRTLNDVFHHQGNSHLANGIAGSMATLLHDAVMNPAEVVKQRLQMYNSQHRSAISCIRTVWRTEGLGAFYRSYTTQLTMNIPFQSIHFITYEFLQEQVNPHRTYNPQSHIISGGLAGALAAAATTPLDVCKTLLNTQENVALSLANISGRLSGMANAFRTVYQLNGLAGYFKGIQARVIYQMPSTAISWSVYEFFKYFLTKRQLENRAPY
UniProt O75746: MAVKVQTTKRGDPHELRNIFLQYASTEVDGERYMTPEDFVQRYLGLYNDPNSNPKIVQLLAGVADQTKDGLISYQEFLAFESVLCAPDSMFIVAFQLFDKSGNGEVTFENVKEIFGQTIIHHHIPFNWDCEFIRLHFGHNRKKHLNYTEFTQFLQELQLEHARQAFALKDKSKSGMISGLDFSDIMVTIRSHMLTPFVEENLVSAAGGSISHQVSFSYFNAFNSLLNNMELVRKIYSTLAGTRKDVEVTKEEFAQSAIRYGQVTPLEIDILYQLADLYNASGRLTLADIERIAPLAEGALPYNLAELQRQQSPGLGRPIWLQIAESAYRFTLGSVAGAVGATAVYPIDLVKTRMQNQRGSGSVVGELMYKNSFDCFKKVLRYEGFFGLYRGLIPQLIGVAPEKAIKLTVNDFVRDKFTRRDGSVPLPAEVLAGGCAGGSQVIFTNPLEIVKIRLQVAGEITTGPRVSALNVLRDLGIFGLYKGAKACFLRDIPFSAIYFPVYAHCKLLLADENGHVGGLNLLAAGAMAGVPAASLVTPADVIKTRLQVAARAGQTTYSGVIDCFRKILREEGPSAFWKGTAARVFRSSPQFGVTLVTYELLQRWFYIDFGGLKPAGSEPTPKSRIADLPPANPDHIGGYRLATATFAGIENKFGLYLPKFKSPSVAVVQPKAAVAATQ
UniProt P53007, whole entry, looked up: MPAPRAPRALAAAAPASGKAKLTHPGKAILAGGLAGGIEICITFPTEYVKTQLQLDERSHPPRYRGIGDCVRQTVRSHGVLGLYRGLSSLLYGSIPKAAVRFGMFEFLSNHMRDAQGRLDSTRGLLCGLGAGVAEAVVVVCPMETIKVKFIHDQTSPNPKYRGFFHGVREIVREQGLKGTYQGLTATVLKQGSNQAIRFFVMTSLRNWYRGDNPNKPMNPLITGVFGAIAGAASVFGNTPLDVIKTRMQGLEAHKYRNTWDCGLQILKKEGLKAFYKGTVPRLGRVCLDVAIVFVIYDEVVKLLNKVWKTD
UniProt Q6P1K1: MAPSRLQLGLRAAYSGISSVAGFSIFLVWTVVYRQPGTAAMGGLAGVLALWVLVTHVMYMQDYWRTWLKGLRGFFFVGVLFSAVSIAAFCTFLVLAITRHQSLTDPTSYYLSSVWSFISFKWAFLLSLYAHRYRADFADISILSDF
UniProt Q8TBP6: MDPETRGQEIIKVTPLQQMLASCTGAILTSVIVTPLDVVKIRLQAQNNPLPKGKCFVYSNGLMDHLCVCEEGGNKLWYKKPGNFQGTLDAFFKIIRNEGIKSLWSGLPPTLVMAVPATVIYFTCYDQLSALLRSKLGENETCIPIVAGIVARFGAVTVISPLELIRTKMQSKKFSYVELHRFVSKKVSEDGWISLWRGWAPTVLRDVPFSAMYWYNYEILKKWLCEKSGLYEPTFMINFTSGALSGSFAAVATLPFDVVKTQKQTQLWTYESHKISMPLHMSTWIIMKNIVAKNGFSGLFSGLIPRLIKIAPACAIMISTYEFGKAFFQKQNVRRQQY
UniProt O76082: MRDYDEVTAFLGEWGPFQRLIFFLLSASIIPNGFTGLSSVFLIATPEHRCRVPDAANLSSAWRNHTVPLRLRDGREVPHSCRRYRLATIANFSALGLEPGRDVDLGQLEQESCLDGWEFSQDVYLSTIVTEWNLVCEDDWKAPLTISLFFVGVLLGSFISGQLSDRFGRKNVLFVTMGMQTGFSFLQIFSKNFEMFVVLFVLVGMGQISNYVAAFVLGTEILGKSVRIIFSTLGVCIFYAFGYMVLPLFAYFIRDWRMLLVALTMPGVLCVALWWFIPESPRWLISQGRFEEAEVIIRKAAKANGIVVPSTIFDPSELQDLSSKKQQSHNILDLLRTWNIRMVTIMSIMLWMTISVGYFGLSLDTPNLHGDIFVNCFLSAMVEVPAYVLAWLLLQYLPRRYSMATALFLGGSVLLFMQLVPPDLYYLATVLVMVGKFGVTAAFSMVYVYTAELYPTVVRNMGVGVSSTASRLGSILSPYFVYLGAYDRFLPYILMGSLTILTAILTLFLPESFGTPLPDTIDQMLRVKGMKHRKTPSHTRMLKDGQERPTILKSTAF
UniProt Q8IWA5: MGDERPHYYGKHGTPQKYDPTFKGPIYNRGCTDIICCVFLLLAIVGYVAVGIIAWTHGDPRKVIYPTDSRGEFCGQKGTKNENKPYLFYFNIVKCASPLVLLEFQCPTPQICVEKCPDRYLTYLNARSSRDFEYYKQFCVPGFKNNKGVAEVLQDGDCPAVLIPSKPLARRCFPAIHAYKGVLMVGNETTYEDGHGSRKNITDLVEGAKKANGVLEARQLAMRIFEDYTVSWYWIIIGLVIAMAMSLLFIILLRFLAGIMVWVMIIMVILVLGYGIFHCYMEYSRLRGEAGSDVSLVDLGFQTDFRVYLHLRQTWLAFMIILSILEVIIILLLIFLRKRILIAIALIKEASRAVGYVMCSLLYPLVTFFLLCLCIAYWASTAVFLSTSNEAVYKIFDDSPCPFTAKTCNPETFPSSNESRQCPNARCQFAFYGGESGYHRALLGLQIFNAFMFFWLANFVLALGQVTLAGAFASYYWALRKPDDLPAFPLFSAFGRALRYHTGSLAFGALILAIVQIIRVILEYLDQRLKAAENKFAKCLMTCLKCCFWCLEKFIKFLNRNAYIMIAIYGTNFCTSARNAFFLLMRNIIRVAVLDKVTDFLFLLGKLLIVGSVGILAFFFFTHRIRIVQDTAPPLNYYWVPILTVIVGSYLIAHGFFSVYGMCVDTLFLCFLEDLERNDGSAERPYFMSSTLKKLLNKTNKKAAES

What was measured:
Assay in all cases: log2 fold change, soluble protein after heating vs DMSO (PISA); higher = thermal stabilisation; K562 lysate, 10 uM; active = over 0.2 and 3.5 SD of the protein, either way, in both replicates (recomputed)
ibrutinib = compound: C=CC(=O)N1CCC[C@@H](n2nc(-c3ccc(Oc4ccccc4)cc3)c3c(N)ncnc32)C1 [ibrutinib]
In short: (§1)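 K562 pellets were dounce-homogenised in PBS pH 7.4 containing 1 mM MgCl2, and the crude extract, at 1 mg/mL protein, was exposed to 10 μM compound for 30 min. Aliquots were heated for 3 min across 48°C-58°C, pooled, brought to 0.5% NP-40 at 4°C and spun at 21,000xg for 90 min, with the supernatant taken as soluble protein. TMTpro 16plex LC-MS/MS with equalised channel sums quantified that protein. Values are log-two fold changes in thermal stability relative to solvent controls, taken from duplicates.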

[1] = compound: CC(=O)c1cnc2ccc(-c3cc(Cl)c(O)c(Cl)c3)nc2c1N[C@H]1CC[C@H](CN(C)C)CC1
In short: as §1

ralimetinib = compound: CC(C)(C)Cn1c(N)nc2ccc(-c3[nH]c(C(C)(C)C)nc3-c3ccc(F)cc3)nc21 [ralimetinib]
In short: as §1

[2] = compound: CC(C)(O)CC(=O)NCCn1ccc2ncnc(Nc3ccc(Oc4cccc(C(F)(F)F)c4)c(Cl)c3)c21
In short: as §1

[3] = compound: CC(C)C1=C2N=C(C=C(N2N=C1)NCC3=CC=CC=C3)NCCCCCCN
In short: as §1

[4] = compound: CC1=C(C(CC(=O)N1)C2=CC=C(C=C2)C(F)(F)F)C(=O)NC3=C(C=C4C(=C3)C=NN4)F
In short: as §1

[5] = compound: CC1=C(C2=C(C=C1)C(=O)C3=CC=CC=C3N2CCCN)C
In short: as §1

[6] = compound: CC1=C(C=C(C=C1)NC(=O)C2=CC(=CC=C2)C(C)(C)C#N)NC3=CC4=C(C=C3)N=CN(C4=O)C
In short: as §1

[7] = compound: CC1=C(C=C(C=C1)NC(=O)C2=CC(=CC=C2)N(C)C)NC(=O)C3=CC=C(C=C3)O
In short: as §1

[8] = compound: CC1=CC=C(C=C1)SC2=C3C=C(SC3=CN=C2)C(=O)N
In short: as §1

Measured: log2 fold change

SLC4A1 (UniProt P02730)
inactive: ibrutinib 0.082 | [1] -0.036 | ralimetinib -0.02 | [2] -0.098 | [3] -0.008 | [4] 0.089 | [5] 0.039 | [6] -0.002 | [7] -0.018 | [8] -0.056

SLC27A4 (UniProt Q6P1M0)
inactive: ibrutinib -0.004 | [1] 0.029 | ralimetinib 0.009 | [2] -0.027 | [3] 0.049 | [4] 0.077 | [5] -0.042 | [6] -0.051 | [7] 0.028 | [8] 0.003

SLC25A33 (UniProt Q9BSK2)
inactive: ibrutinib 0.044 | [1] -0.031 | ralimetinib 0.041 | [2] -0.026 | [3] 0.01 | [4] 0.038 | [5] 0.081 | [6] 0.042 | [7] -0.022 | [8] 0.004

SLC6A8 isoform 2 (UniProt P48029)
inactive: ibrutinib -0.044 | [1] -0.034 | ralimetinib 0.194 | [2] -0.127 | [3] -0.053 | [4] 0.126 | [5] -0.063 | [6] -0.012 | [7] 0.074 | [8] 0.038

SLC9A3R2 (UniProt Q15599)
inactive: ibrutinib 0.003 | [1] -0.001 | ralimetinib -0.01 | [2] -0.034 | [3] -0.018 | [4] 0.004 | [5] -0.015 | [6] -0.002 | [7] -0.006 | [8] -0.018

SLC25A38 (UniProt Q96DW6)
inactive: ibrutinib 0.061 | [1] -0.108 | ralimetinib -0.074 | [2] -0.003 | [3] -0.114 | [4] -0.153 | [5] -0.437 | [6] 0.002 | [7] 0.115 | [8] 0.04

SLIRP (UniProt Q9GZT3)
inactive: ibrutinib -0.036 | [1] 0.015 | ralimetinib -0.019 | [2] -0.03 | [3] -0.003 | [4] 0.004 | [5] -0.017 | [6] 0.023 | [7] -0.029 | [8] -0.036

SLC4A7 isoform 7 (UniProt Q9Y6M7)
inactive: ibrutinib 0.011 | [1] 0.019 | ralimetinib -0.009 | [2] -0.056 | [3] -0.006 | [4] -0.039 | [5] 0.002 | [6] 0.043 | [7] 0.013 | [8] 0.006

SLC37A4 isoform 2 (UniProt O43826)
inactive: ibrutinib 0.022 | [1] -0.01 | ralimetinib 0.101 | [2] 0.02 | [3] 0.081 | [4] -0.014 | [5] -0.054 | [6] 0.051 | [7] -0.061 | [8] -0.004

SLC25A3 isoform 2 (UniProt Q00325)
inactive: ibrutinib 0.024 | [1] -0.015 | ralimetinib 0.027 | [2] -0.01 | [3] 0.014 | [4] -0.004 | [5] -0.001 | [6] 0.032 | [7] -0.005 | [8] 0.016

SLC9A1 (UniProt P19634)
inactive: ibrutinib 0.045 | [1] 0.036 | ralimetinib -0.027 | [2] -0.063 | [3] -0.086 | [4] -0.08 | [5] 0.021 | [6] -0.044 | [7] 0.221 | [8] -0.044

SLC25A21 (UniProt Q9BQT8)
inactive: ibrutinib -0.027 | [1] -0.016 | ralimetinib 0.026 | [2] -0.02 | [3] 0.002 | [4] 0.01 | [5] -0.056 | [6] -0.002 | [7] -0.007 | [8] 0.03

SLC30A10 (UniProt Q6XR72)
inactive: ibrutinib 0.059 | [1] 0.015 | ralimetinib 0.05 | [2] 0 | [3] -0.098 | [4] 0.172 | [5] -0.047 | [6] 0.052 | [7] 0.01 | [8] -0.032

SLC25A37 (UniProt Q9NYZ2)
inactive: ibrutinib 0.031 | [1] 0.012 | ralimetinib -0.01 | [2] -0.066 | [3] 0.01 | [4] -0.038 | [5] -0.071 | [6] 0.054 | [7] -0.103 | [8] 0.046

SLC25A12 (UniProt O75746)
inactive: ibrutinib -0.018 | [1] -0.007 | ralimetinib 0.006 | [2] -0.004 | [3] 0.002 | [4] -0.005 | [5] -0.004 | [6] -0.023 | [7] -0.015 | [8] 0.048

SLC26A6 (UniProt Q9BXS9)
inactive: ibrutinib -0.242 | [1] 0.018 | ralimetinib 0.019 | [2] -0.056 | [3] -0.05 | [4] -0.157 | [5] -0.022 | [6] 0.017 | [7] 0.033 | [8] -0.056

SLC6A6 (UniProt P31641)
inactive: ibrutinib 0.015 | [1] -0.014 | ralimetinib 0.011 | [2] -0.139 | [3] -0.036 | [4] 0.024 | [5] 0.066 | [6] 0 | [7] -0.022 | [8] -0.022

SLC30A1 (UniProt Q9Y6M5)
inactive: ibrutinib 0.001 | [1] -0.012 | ralimetinib 0.014 | [2] -0.063 | [3] -0.069 | [4] 0.004 | [5] 0.001 | [6] 0.049 | [7] -0.012 | [8] -0.004

SLC25A1 (UniProt P53007)
inactive: ibrutinib -0.028 | [1] -0.019 | ralimetinib 0.004 | [2] 0.008 | [3] 0.026 | [4] -0.011 | [5] -0.012 | [6] 0.01 | [7] 0.026 | [8] 0.025

SLC48A1 (UniProt Q6P1K1)
inactive: ibrutinib -0.143 | [1] 0 | ralimetinib -0.084 | [2] -0.014 | [3] 0.008 | [4] -0.205 | [5] 0.019 | [7] -0.042 | [8] -0.234

SLC25A40 (UniProt Q8TBP6)
inactive: ibrutinib 0.048 | [1] 0.003 | ralimetinib 0.031 | [2] -0.065 | [3] -0.037 | [4] 0.015 | [5] -0.022 | [6] 0.027 | [7] 0 | [8] -0.009

SLC38A2 (UniProt Q96QD8)
inactive: ibrutinib 0.039 | [1] -0.015 | ralimetinib 0.001 | [2] 0.03 | [3] -0.101 | [4] -0.042 | [5] 0.018 | [6] -0.036 | [7] -0.057 | [8] 0.024

SMAD9 (UniProt O15198)
inactive: ibrutinib -0.025 | [1] -0.018 | ralimetinib -0.034 | [2] 0.029 | [3] 0.021 | [4] -0.038 | [5] 0.079 | [6] -0.028 | [7] -0.072 | [8] -0.029

SLC22A5 isoform 3 (UniProt O76082)
inactive: ibrutinib 0.016 | [1] -0.01 | ralimetinib -0.282 | [2] 0.132 | [3] 0.091 | [5] -0.054 | [6] 0.068 | [7] -0.259 | [8] 0.025

SLC30A7 (UniProt Q8NEW0)
inactive: ibrutinib -0.106 | [1] 0.018 | ralimetinib -0.049 | [2] -0.012 | [4] 0.397 | [5] 0.028 | [6] 0.088 | [7] 0.009 | [8] -0.051

SLC45A4 isoform 3 (UniProt Q5BKX6)
inactive: ibrutinib 0.085 | [1] 0.014 | ralimetinib -0.04 | [2] -0.047 | [3] 0.014 | [4] 0.033 | [6] 0.064 | [7] -0.053 | [8] 0.031

SLC44A2 (UniProt Q8IWA5)
inactive: ibrutinib -0.089 | [1] -0.023 | ralimetinib -0.035 | [2] -0.119 | [3] 0.021 | [4] 0.042 | [5] -0.059 | [6] 0.025 | [7] 0.03 | [8] -0.051

SLC66A1 (UniProt Q6ZP29)
inactive: ibrutinib 0.231 | [1] 0.122 | ralimetinib -0.117 | [2] -0.075 | [3] -0.012 | [4] 0.016 | [6] 0.089 | [7] -0.052 | [8] 0.024

2 successive records out of the list so far, quoted:
SLC44A2 (UniProt Q8IWA5)
inactive: ibrutinib -0.089 | [1] -0.023 | ralimetinib -0.035 | [2] -0.119 | [3] 0.021 | [4] 0.042 | [5] -0.059 | [6] 0.025 | [7] 0.03 | [8] -0.051

SLC66A1 (UniProt Q6ZP29)
inactive: ibrutinib 0.231 | [1] 0.122 | ralimetinib -0.117 | [2] -0.075 | [3] -0.012 | [4] 0.016 | [6] 0.089 | [7] -0.052 | [8] 0.024

Later entries

SLC25A31 (UniProt Q9H0C2)
inactive: ibrutinib -0.017 | [1] -0.01 | ralimetinib -0.001 | [2] -0.027 | [3] 0.035 | [4] 0.02 | [5] -0.001 | [6] -0.016 | [7] 0.016 | [8] 0.043
